These are yes or no findings as the source states them, for the method shown. Some entries that bind do so weakly or less than the wild type.
Experiments:
[1] = target: LYN fused to 3×Flag-miniTurbo biotin ligase (human) (UniProt P07948); assay: proximity labelling; BioID: LYN-miniTurbo in Flp-In T-REx 293, doxycycline 24 h, then SI-3 (156 nM) or DMSO with 100 µM biotin for 1 h; streptavidin enrichment, TMT mass spectrometry; SI-3 against DMSO and against GFP-mT controls
[2] = target: BLK fused to 3×Flag-miniTurbo biotin ligase (human) (UniProt P51451); assay: proximity labelling; BioID: BLK-miniTurbo (and APH1A-miniTurbo) in KBM7, doxycycline 24 h, 100 µM biotin 1 h; baseline (DMSO) scored against GFP controls with SAINTq; streptavidin enrichment, TMT mass spectrometry

The chains behind the UniProt entries cited, without tags or fusion partners.
UniProt P07948: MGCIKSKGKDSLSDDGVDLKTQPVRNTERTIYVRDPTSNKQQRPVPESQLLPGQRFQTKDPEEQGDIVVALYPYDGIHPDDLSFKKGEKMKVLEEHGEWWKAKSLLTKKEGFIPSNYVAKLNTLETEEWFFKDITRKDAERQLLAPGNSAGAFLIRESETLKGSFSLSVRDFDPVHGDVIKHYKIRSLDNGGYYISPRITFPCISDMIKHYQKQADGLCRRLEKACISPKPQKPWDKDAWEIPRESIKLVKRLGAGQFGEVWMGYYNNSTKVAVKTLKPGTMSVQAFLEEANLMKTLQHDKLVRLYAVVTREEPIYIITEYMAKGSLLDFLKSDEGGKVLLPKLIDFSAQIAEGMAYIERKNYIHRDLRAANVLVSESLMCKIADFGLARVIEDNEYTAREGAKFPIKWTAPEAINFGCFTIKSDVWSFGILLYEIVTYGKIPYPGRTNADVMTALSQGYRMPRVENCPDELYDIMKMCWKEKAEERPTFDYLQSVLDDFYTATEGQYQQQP
UniProt P51451: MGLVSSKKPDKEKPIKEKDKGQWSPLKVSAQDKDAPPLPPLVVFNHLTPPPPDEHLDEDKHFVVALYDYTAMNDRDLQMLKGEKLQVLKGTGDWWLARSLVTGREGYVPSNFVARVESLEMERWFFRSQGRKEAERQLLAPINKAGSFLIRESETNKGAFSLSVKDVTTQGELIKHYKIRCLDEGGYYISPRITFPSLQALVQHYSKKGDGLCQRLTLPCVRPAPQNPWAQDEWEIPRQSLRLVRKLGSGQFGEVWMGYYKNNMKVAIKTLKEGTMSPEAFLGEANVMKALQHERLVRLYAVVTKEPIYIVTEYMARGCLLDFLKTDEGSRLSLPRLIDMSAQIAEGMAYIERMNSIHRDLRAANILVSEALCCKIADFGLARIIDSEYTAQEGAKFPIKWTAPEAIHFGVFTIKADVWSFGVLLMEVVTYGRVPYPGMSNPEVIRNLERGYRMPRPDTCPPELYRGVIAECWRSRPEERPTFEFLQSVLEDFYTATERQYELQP
UniProt Q13191: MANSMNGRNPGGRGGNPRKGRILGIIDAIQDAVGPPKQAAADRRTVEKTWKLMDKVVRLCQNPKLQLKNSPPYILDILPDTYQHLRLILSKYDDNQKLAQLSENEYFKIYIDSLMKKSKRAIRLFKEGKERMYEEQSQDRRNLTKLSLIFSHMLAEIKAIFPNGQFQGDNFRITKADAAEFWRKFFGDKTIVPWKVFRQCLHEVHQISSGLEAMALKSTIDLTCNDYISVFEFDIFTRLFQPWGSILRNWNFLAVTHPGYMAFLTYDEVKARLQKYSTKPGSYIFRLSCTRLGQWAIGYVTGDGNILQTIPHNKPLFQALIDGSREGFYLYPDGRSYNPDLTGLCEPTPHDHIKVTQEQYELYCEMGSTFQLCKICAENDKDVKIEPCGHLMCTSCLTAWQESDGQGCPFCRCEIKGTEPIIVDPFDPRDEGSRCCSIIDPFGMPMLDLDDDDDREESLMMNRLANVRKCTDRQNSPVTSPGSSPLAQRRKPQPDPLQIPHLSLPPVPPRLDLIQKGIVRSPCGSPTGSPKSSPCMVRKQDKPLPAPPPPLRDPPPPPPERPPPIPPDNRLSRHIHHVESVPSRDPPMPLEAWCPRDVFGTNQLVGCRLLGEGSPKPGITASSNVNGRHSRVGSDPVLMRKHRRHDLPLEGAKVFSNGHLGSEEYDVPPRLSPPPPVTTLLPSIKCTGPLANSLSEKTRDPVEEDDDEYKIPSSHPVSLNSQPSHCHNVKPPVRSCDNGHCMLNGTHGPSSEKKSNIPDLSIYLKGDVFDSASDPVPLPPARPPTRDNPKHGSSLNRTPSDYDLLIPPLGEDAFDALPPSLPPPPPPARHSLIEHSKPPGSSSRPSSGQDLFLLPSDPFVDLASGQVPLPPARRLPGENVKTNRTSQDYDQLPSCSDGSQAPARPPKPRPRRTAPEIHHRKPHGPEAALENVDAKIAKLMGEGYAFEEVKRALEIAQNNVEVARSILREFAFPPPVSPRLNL

binding [1] | binding [2] | Substance
binds | – | CBLB (from UniProt Q13191 1-982)
– | binds | NCSTN (from UniProt Q92542 34-709)

Reference: PMC12823440, “Inhibitors supercharge kinase turnover through native proteolytic circuits” (Nature, 2025)
